# Measurements as given in article PMC4070987.
# The chains behind the UniProt entries cited, without tags or fusion partners. Residues count along the entry.
# UniProt P23694, residues 17-487: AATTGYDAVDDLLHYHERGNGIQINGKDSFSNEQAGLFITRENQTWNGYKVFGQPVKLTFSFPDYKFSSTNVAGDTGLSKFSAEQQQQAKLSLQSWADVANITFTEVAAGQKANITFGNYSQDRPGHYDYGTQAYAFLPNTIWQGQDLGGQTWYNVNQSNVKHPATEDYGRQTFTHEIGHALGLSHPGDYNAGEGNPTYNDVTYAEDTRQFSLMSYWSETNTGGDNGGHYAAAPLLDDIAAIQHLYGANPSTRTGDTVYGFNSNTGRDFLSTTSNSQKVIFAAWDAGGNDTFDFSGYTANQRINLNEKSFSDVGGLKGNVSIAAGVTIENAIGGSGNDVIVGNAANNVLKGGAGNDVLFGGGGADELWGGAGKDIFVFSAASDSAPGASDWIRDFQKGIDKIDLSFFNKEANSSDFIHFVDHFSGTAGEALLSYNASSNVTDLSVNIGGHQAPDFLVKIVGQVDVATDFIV
# These are yes or no findings as the source states them, for the method shown. Some entries that bind do so weakly or less than the wild type. Sequences can lack the tags named with a protein.
# Biological target: Serralysin from Serratia marcescens (SmP) (Serratia marcescens) (UniProt P23694)
# Assay: SEC; analytical gel filtration, TOSOH QC-PAK GFC 200 column on HPLC, refolding buffer (50 mM Tris, 150 mM NaCl, 2 mM CaCl2); inhibitor mixed in equimolar ratio with refolded protease; UV absorbance at 220 and 280 nm; both purified
binder,measurement,value
"aprI inhibitor (AP Inh), alkaline protease inhibitor from Pseudomonas aeruginosa, Smt3 tag removed (protein, UniProt Q03026 27-131) SLILLSASDLAGQWTLQQDEAPAICHLELRDSEVAEASGYDLGGDTACLTRWLPSEPRAWRPTPAGIALLERGGLTLMLLGRQGEGDYRVQKGDGGQLVLRRATP",binding,binds
